Reference: patent US20250283871A1, “COMPOSITIONS AND METHODS FOR MODULATING THE INTERACTION BETWEEN SS18-SSX FUSION ONCOPROTEIN AND NUCLEOSOMES” (Dana-Farber Cancer Institute, Inc., priority 2020, published 2025)

B1: COPA (protein, UniProt P53621 1-1224, looked up)
Coatomer subunit alpha: MLTKFETKSARVKGLSFHPKRPWILTSLHNGVIQLWDYRMCTLIDKFDEHDGPVRGIDFHKQQPLFVSGGDDYKIKVWNYKLRRCLFTLLGHLDYIRTTFFHHEYPWILSASDDQTIRVWNWQSRTCVCVLTGHNHYVMCAQFHPTEDLVVSASLDQTVRVWDISGLRKKNLSPGAVESDVRGITGVDLFGTTDAVVKHVLEGHDRGVNWAAFHPTMPLIVSGADDRQVKIWRMNESKAWEVDTCRGHYNNVSCAVFHPRQELILSNSEDKSIRVWDMSKRTGVQTFRRDHDRFWVLAAHPNLNLFAAGHDGGMIVFKLERERPAYAVHGNMLHYVKDRFLRQLDFNSSKDVAVMQLRSGSKFPVFNMSYNPAENAVLLCTRASNLENSTYDLYTIPKDADSQNPDAPEGKRSSGLTAVWVARNRFAVLDRMHSLLIKNLKNEITKKVQVPNCDEIFYAGTGNLLLRDADSITLFDVQQKRTLASVKISKVKYVIWSADMSHVALLAKHAIVICNRKLDALCNIHENIRVKSGAWDESGVFIYTTSNHIKYAVTTGDHGIIRTLDLPIYVTRVKGNNVYCLDRECRPRVLTIDPTEFKFKLALINRKYDEVLHMVRNAKLVGQSIIAYLQKKGYPEVALHFVKDEKTRFSLALECGNIEIALEAAKALDDKNCWEKLGEVALLQGNHQIVEMCYQRTKNFDKLSFLYLITGNLEKLRKMMKIAEIRKDMSGHYQNALYLGDVSERVRILKNCGQKSLAYLTAATHGLDEEAESLKETFDPEKETIPDIDPNAKLLQPPAPIMPLDTNWPLLTVSKGFFEGTIASKGKGGALAADIDIDTVGTEGWGEDAELQLDEDGFVEATEGLGDDALGKGQEEGGGWDVEEDLELPPELDISPGAAGGAEDGFFVPPTKGTSPTQIWCNNSQLPVDHILAGSFETAMRLLHDQVGVIQFGPYKQLFLQTYARGRTTYQALPCLPSMYGYPNRNWKDAGLKNGVPAVGLKLNDLIQRLQLCYQLTTVGKFEEAVEKFRSILLSVPLLVVDNKQEIAEAQQLITICREYIVGLSVETERKKLPKETLEQQKRICEMAAYFTHSNLQPVHMILVLRTALNLFFKLKNFKTAATFARRLLELGPKPEVAQQTRKILSACEKNPTDAYQLNYDMHNPFDICAASYRPIYRGKPVEKCPLSGACYSPEFKGQICRVTTVTEIGKDVIGLRISPLQFR
B2: PHGDH (protein, UniProt O43175 2-533, looked up)
D-3-phosphoglycerate …: AFANLRKVLISDSLDPCCRKILQDGGLQVVEKQNLSKEELIAELQDCEGLIVRSATKVTADVINAAEKLQVVGRAGTGVDNVDLEAATRKGILVMNTPNGNSLSAAELTCGMIMCLARQIPQATASMKDGKWERKKFMGTELNGKTLGILGLGRIGREVATRMQSFGMKTIGYDPIISPEVSASFGVQQLPLEEIWPLCDFITVHTPLLPSTTGLLNDNTFAQCKKGVRVVNCARGGIVDEGALLRALQSGQCAGAALDVFTEEPPRDRALVDHENVISCPHLGASTKEAQSRCGEEIAVQFVDMVKGKSLTGVVNAQALTSAFSPHTKPWIGLAEALGTLMRAWAGSPKGTIQVITQGTSLKNAGNCLSPAVIVGLLKEASKQADVNLVNAKLLVKEAGLNVTTSHSPAAPGEQGFGECLLAVALAGAPYQAVGLVQGTTPVLQGLNGAVFRPEVPLRRDLPLLLFRTQTSDPAMLPTMIGLLAEAGVRLLSYQTSLVSDGETWHVMGISSLLPSLEAWKQHVTEAFQFHF
B3: ATP5O (protein, UniProt P48047 24-213, looked up)
ATP synthase peripheral stalk …: FAKLVRPPVQVYGIEGRYATALYSAASKQNKLEQVEKELLRVAQILKEPKVAASVLNPYVKRSIKVKSLNDITAKERFSPLTTNLINLLAENGRLSNTQGVVSAFSTMMSVHRGEVPCTVTSASPLEEATLSELKTVLKSFLSQGQVLKLEAKTDPSILGGMIVRIGEKYVDMSVKTKIQKLGRAMREIV
B4: AGK (protein, UniProt Q53H12 1-422, looked up)
Acylglycerol kinase, …: MTVFFKTLRNHWKKTTAGLCLLTWGGHWLYGKHCDNLLRRAACQEAQVFGNQLIPPNAQVKKATVFLNPAACKGKARTLFEKNAAPILHLSGMDVTIVKTDYEGQAKKLLELMENTDVIIVAGGDGTLQEVVTGVLRRTDEATFSKIPIGFIPLGETSSLSHTLFAESGNKVQHITDATLAIVKGETVPLDVLQIKGEKEQPVFAMTGLRWGSFRDAGVKVSKYWYLGPLKIKAAHFFSTLKEWPQTHQASISYTGPTERPPNEPEETPVQRPSLYRRILRRLASYWAQPQDALSQEVSPEVWKDVQLSTIELSITTRNNQLDPTSKEDFLNICIEPDTISKGDFITIGSRKVRNPKLHVEGTECLQASQCTLLIPEGAGGSFSIDSEEYEAMPVEVKLLPRKLQFFCDPRKREQMLTSPTQ
B5: SLC16A1 (protein, UniProt P53985 1-500, looked up)
Monocarboxylate transporter 1: MPPAVGGPVGYTPPDGGWGWAVVIGAFISIGFSYAFPKSITVFFKEIEGIFHATTSEVSWISSIMLAVMYGGGPISSILVNKYGSRIVMIVGGCLSGCGLIAASFCNTVQQLYVCIGVIGGLGLAFNLNPALTMIGKYFYKRRPLANGLAMAGSPVFLCTLAPLNQVFFGIFGWRGSFLILGGLLLNCCVAGALMRPIGPKPTKAGKDKSKASLEKAGKSGVKKDLHDANTDLIGRHPKQEKRSVFQTINQFLDLTLFTHRGFLLYLSGNVIMFFGLFAPLVFLSSYGKSQHYSSEKSAFLLSILAFVDMVARPSMGLVANTKPIRPRIQYFFAASVVANGVCHMLAPLSTTYVGFCVYAGFFGFAFGWLSSVLFETLMDLVGPQRFSSAVGLVTIVECCPVLLGPPLLGRLNDMYGDYKYTYWACGVVLIISGIYLFIGMGINYRLLAKEQKANEQKKESKEEETSIDVAGKPNEVTKAAESPDQKDTDGGPKEEESPV
B6: STT3A (protein, UniProt P46977 1-705, looked up)
Dolichyl-diphosphooligosacchar …: MTKFGFLRLSYEKQDTLLKLLILSMAAVLSFSTRLFAVLRFESVIHEFDPYFNYRTTRFLAEEGFYKFHNWFDDRAWYPLGRIIGGTIYPGLMITSAAIYHVLHFFHITIDIRNVCVFLAPLFSSFTTIVTYHLTKELKDAGAGLLAAAMIAVVPGYISRSVAGSYDNEGIAIFCMLLTYYMWIKAVKTGSICWAAKCALAYFYMVSSWGGYVFLINLIPLHVLVLMLTGRFSHRIYVAYCTVYCLGTILSMQISFVGFQPVLSSEHMAAFGVFGLCQIHAFVDYLRSKLNPQQFEVLFRSVISLVGFVLLTVGALLMLTGKISPWTGRFYSLLDPSYAKNNIPIIASVSEHQPTTWSSYYFDLQLLVFMFPVGLYYCFSNLSDARIFIIMYGVTSMYFSAVMVRLMLVLAPVMCILSGIGVSQVLSTYMKNLDISRPDKKSKKQQDSTYPIKNEVASGMILVMAFFLITYTFHSTWVTSEAYSSPSIVLSARGGDGSRIIFDDFREAYYWLRHNTPEDAKVMSWWDYGYQITAMANRTILVDNNTWNNTHISRVGQAMASTEEKAYEIMRELDVSYVLVIFGGLTGYSSDDINKFLWMVRIGGSTDTGKHIKENDYYTPTGEFRVDREGSPVLLNCLMYKMCYYRFGQVYTEAKRPPGFDRVRNAEIGNKDFELDVLEEAYTTEHWLVRIYKVKDLDNRGLSRT
B7: ATP2A2 (protein, UniProt P16615 1-1042, looked up)
Sarcoplasmic/endoplasmic …: MENAHTKTVEEVLGHFGVNESTGLSLEQVKKLKERWGSNELPAEEGKTLLELVIEQFEDLLVRILLLAACISFVLAWFEEGEETITAFVEPFVILLILVANAIVGVWQERNAENAIEALKEYEPEMGKVYRQDRKSVQRIKAKDIVPGDIVEIAVGDKVPADIRLTSIKSTTLRVDQSILTGESVSVIKHTDPVPDPRAVNQDKKNMLFSGTNIAAGKAMGVVVATGVNTEIGKIRDEMVATEQERTPLQQKLDEFGEQLSKVISLICIAVWIINIGHFNDPVHGGSWIRGAIYYFKIAVALAVAAIPEGLPAVITTCLALGTRRMAKKNAIVRSLPSVETLGCTSVICSDKTGTLTTNQMSVCRMFILDRVEGDTCSLNEFTITGSTYAPIGEVHKDDKPVNCHQYDGLVELATICALCNDSALDYNEAKGVYEKVGEATETALTCLVEKMNVFDTELKGLSKIERANACNSVIKQLMKKEFTLEFSRDRKSMSVYCTPNKPSRTSMSKMFVKGAPEGVIDRCTHIRVGSTKVPMTSGVKQKIMSVIREWGSGSDTLRCLALATHDNPLRREEMHLEDSANFIKYETNLTFVGCVGMLDPPRIEVASSVKLCRQAGIRVIMITGDNKGTAVAICRRIGIFGQDEDVTSKAFTGREFDELNPSAQRDACLNARCFARVEPSHKSKIVEFLQSFDEITAMTGDGVNDAPALKKAEIGIAMGSGTAVAKTASEMVLADDNFSTIVAAVEEGRAIYNNMKQFIRYLISSNVGEVVCIFLTAALGFPEALIPVQLLWVNLVTDGLPATALGFNPPDLDIMNKPPRNPKEPLISGWLFFRYLAIGCYVGAATVGAAAWWFIAADGGPRVSFYQLSHFLQCKEDNPDFEGVDCAIFESPYPMTMALSVLVTIEMCNALNSLSENQSLLRMPPWENIWLVGSICLSMSLHFLILYVEPLPLIFQITPLNVTQWLMVLKISLPVILMDETLKFVARNYLEPGKECVQPATKSCSFSACTDGISWPFVLLIMPLVIWVYSTDTNFSDMFWS

The molecules below were run on BAF complex subunits and histone proteins (assay: Mass spectrometry proteomics of purified HA-SS18 WT and HA-SS18-SSX1 complexes (Tables 5A-5E)). Settings: HA-SS18SSX1 purification, NE (soluble nuclear extract) fraction, HEK-293T; peptides per identified protein.
Set-up: species or system human
B1 was tested, and the “Total (total peptides)” value was 7 and the “Unique (unique peptides)” value was 7.
B2 was tested, and the “Total (total peptides)” value was 7 and the “Unique (unique peptides)” value was 7.
In the case of B3, the “Total (total peptides)” value is reported as 7 and the “Unique (unique peptides)” value is reported as 7.
B4 was tested, and the “Total (total peptides)” value was 7 and the “Unique (unique peptides)” value was 7.
With B5 the “Total (total peptides)” value was 8 and the “Unique (unique peptides)” value was 6.
With B6 the “Total (total peptides)” value was 7 and the “Unique (unique peptides)” value was 7.
B7 was tested, and the “Total (total peptides)” value was 8 and the “Unique (unique peptides)” value was 7.

Same assay, conditions: HA-SS18WT_NE_peptides: HA-SS18 WT complexes purified from nuclear extract (NE), HEK-293T; label = protein identified (Gene Symbol)
With B1 the “Total (peptides)” value was 5 and the “Unique (peptides)” value was 5.
With B2 the “Total (peptides)” value was 6 and the “Unique (peptides)” value was 5.
For B3, the “Total (peptides)” value was 4 and the “Unique (peptides)” value was 4.
In the case of B4, the “Total (peptides)” value is reported as 11 and the “Unique (peptides)” value is reported as 10.
With B5 the “Total (peptides)” value was 10 and the “Unique (peptides)” value was 5.
B6 was tested, and the “Total (peptides)” value was 5 and the “Unique (peptides)” value was 5.
With B7 the “Total (peptides)” value was 15 and the “Unique (peptides)” value was 12.
